Laboratory results: patent US7041498
No constants are given. Whether binding was seen depends on the method and setting. Some binding calls cover weakened binding; strength is not graded here.

By UniProt entry, the sequences of proteins in these tests, tags left out.
UniProt P19793: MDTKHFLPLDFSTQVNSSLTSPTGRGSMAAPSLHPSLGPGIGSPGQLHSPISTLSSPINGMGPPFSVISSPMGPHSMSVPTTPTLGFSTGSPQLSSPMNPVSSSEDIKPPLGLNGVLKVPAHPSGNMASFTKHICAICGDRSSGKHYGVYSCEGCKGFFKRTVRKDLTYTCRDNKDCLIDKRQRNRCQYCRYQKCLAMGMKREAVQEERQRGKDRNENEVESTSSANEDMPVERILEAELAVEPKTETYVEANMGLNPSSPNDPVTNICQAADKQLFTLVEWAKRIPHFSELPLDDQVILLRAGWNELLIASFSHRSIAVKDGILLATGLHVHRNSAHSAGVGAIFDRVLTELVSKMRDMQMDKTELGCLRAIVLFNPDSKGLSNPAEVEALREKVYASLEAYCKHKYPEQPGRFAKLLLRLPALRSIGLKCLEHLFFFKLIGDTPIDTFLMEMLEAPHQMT

Legend:
[1] = biological target: RXRα, in vitro translated (UniProt P19793); experiment: electrophoretic mobility shift assay, in vitro translated proteins on 32P-labeled hsp27-EcRE DNA
[2] = biological target: RXRα, in vitro translated (UniProt P19793); experiment: electrophoretic mobility shift assay, in vitro translated proteins on 32P-labeled idealized IR1 DNA

B1: FAR (Farnesoid Activated Receptor), in vitro translated (receptor)
chain: MNLIGPSHLQATDEFALSENLFGVLTEHAAGPLGQNLDLESYSPYNNVQFPQVQPQISSSSYYSNLGFYPQQPEDWYSPGLYELRRMPTESVYQGETEVSEMPVTKKPRMAASSAGRIKGDELCVVCGDRASGYHYNALTCEGCKGFFRRSITKNAVYKCKNGGNCVMDMYMRRKCQDCRLRKCREMGMLAECLLTEIQCKSKRLRKNVKQHADQTVNEDSEGRDLRQVTSTTKLCREKTELTVDQQTLLDYIMDSYSKQRMPQEITNKILKEEFSAEENFLILTEMATSHVQILVEFTKRLPGFQTLDHEDQIALLKGSAVEAMFLRSAEIFNKKLLPDTQTCWKKEFERAASPMRYITPMFSFYKSVGELKMTQEEYALLTAIVILSPDRQYIKDREAVEKLQEPLLDVLQKLCKIYQPENPQHFACLLGRLTELRTFNHHHAEMLMSWRVNDHKFTPLLCEIWDVQ
Q: B1 was tested. Which binding [1] did it give?
A: binds

Q: What about the binding [2] of the same binder?
A: binds
